Measured values from PubChem BioAssay AID652054 (National Center for Advancing Translational Sciences (NCATS), 2013).
The campaign covered roughly 360,000 compounds. About 9,100 (2.5%) were called active. Inconclusive results, whose numbers are uncertain, are shown with a selection of clear calls. No stated cut-off is given here; in the data, active means max response below about -50%; inconclusive means no clear call, values can overlap the other calls; inactive means above that.

Sequences of proteins named here, by UniProt entry; tags and fusion partners are left off.
UniProt P35462, whole entry, looked up: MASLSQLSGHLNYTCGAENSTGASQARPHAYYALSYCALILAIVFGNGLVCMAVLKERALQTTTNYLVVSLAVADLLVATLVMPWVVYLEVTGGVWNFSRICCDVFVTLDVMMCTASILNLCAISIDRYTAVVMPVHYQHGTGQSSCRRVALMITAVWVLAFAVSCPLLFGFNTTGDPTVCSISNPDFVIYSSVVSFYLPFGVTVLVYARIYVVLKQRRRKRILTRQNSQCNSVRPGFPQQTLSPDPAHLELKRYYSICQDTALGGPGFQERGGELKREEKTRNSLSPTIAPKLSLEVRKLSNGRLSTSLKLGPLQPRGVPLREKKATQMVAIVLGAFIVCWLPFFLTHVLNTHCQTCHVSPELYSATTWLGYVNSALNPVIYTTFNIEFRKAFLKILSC

These compounds were tested against D(3) dopamine receptor (Homo sapiens) (UniProt P35462) (assay: qHTS of D3 Dopamine Receptor Antagonist: qHTS). Settings: D3R cells, DiscoveRx beta-arrestin luminescence, antagonist mode; hits give low values.
Procedure, shortened: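 Cells plated overnight at 1500 cells/well, then exposed to library compounds with dopamine controls for 90 minutes at 37 degrees C. DiscoveRx reagent added for 30–60 minutes at room temperature; luminescence read, quantitative HTS format.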
On the % scale 0 is the no-effect control and ±100 the full control effect.

| SMILES | max response, negative = inhibition |
| --- | --- |
| COc1ccc(-c2cc(C#N)nc(N3CCN(C)CC3)n2)cc1 | inconclusive: -47.7% |
| O=C(c1ccco1)N(Cc1cccs1)C1CCS(=O)(=O)C1 (stereo not drawn) | inconclusive: -44.1% |
| Cc1cc(NC(=O)CSc2nnc(COc3ccccc3)n2Cc2ccco2)no1 | inactive: 5.61% |
| C[C@H](CO)N1C[C@H](C)[C@@H](CN(C)C(=O)Nc2ccc3c(c2)OCO3)Oc2ccc(NC(=O)Cn3cnnn3)cc2C1=O | inconclusive: -38.4% |
| Cc1nn(C)cc1C(C(=O)NC1CCCCC1)N(Cc1ccccc1Cl)C(=O)c1cnccn1 (stereo not drawn) | inconclusive: -32.3% |
| N#Cc1nc(Cc2ccccc2)oc1NCc1ccccc1Cl | inconclusive: -31.9% |
| CCOc1ccc(C2NC(=O)C(C#N)=C(S)N2c2ccc(OC)cc2)cc1OC (stereo not drawn) | active: -68.3% |
| C=CCN1C(=O)c2ccc(C(=O)NCC(c3ccccc3)N(C)C)cc2C1=O (stereo not drawn) | inconclusive: -30.3% |
| O=C(NCc1ccccc1)C1CC2CCCC(C1)C2=O (stereo not drawn) | inconclusive: -30.3% |
| CC1(C(=O)NS(=O)(=O)c2cccc(Cl)c2)CCN1C(=O)CCc1ccc(Cl)cc1Cl (stereo not drawn) | inconclusive: -31.1% |
| Cc1ccc(-c2cc3nn(-c4ccccc4)c(N)c3c(=O)o2)cc1 | inactive: 31.2% |
| CN(C(=O)COC(=O)c1cnc(Cl)c(Cl)c1)C1CCCCC1 | inconclusive: -48.8% |
| COc1ccc(CC2=C(O)c3ccccc3C(=O)C2=O)cc1 | inconclusive: -32.4% |
| O=C(O)CCC(=O)N1N=C(c2cccs2)CC1c1cn(-c2ccccc2)nc1-c1ccccc1 (stereo not drawn) | inactive: -2.95% |
| COc1ccc(CCNC(=O)c2cc(-c3ccncc3)nc3c(Cl)cccc23)cc1OC | inactive: -4.05% |
| Cc1cc(C)cc(NC(=O)CCC(=O)Nc2cc(C)on2)c1 | inconclusive: -32% |
| OC(c1ccc(Cl)c(F)c1)c1ncc(-c2ccccc2F)[nH]1 (stereo not drawn) | inconclusive: -41.9% |
| O=C(NCCCN1CCOCC1)c1ccco1 | inactive: 21.1% |
| Cc1ccc(CC(=O)Nc2cccnc2)cc1 | inconclusive: -33.1% |
| Cc1ccc(NC(=O)CN2C(=O)N/C(=C/c3ccc(C)o3)C2=O)cc1 | inconclusive: -30.8% |
| CCOC(=O)C1(Cc2cccc(Cl)c2)CCCN(C(=O)c2cc(C)[nH]n2)C1 (stereo not drawn) | inconclusive: -36.4% |
| OC(c1ccccc1)(c1ccccc1)C1CCN(CCCOc2ccc3c(c2)CCCC3)CC1 | inactive: -16.7% |

6 compounds drawn at random from those above, as already listed:

| SMILES | max response, negative = inhibition |
| --- | --- |
| Cc1ccc(CC(=O)Nc2cccnc2)cc1 | inconclusive: -33.1% |
| CCOc1ccc(C2NC(=O)C(C#N)=C(S)N2c2ccc(OC)cc2)cc1OC (stereo not drawn) | active: -68.3% |
| Cc1cc(NC(=O)CSc2nnc(COc3ccccc3)n2Cc2ccco2)no1 | inactive: 5.61% |
| Cc1ccc(NC(=O)CN2C(=O)N/C(=C/c3ccc(C)o3)C2=O)cc1 | inconclusive: -30.8% |
| COc1ccc(-c2cc(C#N)nc(N3CCN(C)CC3)n2)cc1 | inconclusive: -47.7% |
| CCOC(=O)C1(Cc2cccc(Cl)c2)CCCN(C(=O)c2cc(C)[nH]n2)C1 (stereo not drawn) | inconclusive: -36.4% |

Remaining list, next part:

| SMILES | max response, negative = inhibition |
| --- | --- |
| Cc1cc(=O)oc2cc(OCC(O)CN3CCN(c4ccc(F)cc4)CC3)ccc12 (stereo not drawn) | inconclusive: -34.4% |
| COc1ccc2nc(NC(=O)C3CCCN3S(=O)(=O)c3ccc(C)cc3)sc2c1 (stereo not drawn) | active: -70.9% |
| Cc1ccc(/C=N/Nc2nc(C)cc(C)n2)cc1 | inconclusive: -49.5% |
| O=C(/C=C/c1ccc(F)cc1)NC(=S)Nc1ccccc1 | inactive: 4.63% |
| CCOC(=O)C1CCN(Cc2cnc(Oc3ccc(Cl)cc3C)s2)CC1 | active: -58.3% |
| CCOc1ccc(S(=O)(=O)Nc2ccc(O)c(Sc3ncn[nH]3)c2)cc1 | inconclusive: -31% |
| CNC(=O)c1nnsc1S(=O)(=O)c1ccc(Cl)cc1 | active: -110% |
| CC(C)c1ccc(NC(=O)NC2CC3CCC(C2)N3Cc2cccs2)cc1 (stereo not drawn) | inconclusive: -37% |
| CCCN(CCC)CCCOC(=O)c1ccc(Cl)cc1Cl | active: -69.4% |
| Nc1nc(CN2CCN(c3ccccc3)CC2)nc(N2CCCc3ccccc32)n1 | inconclusive: -39.8% |
| CN(C)C(=O)c1ccc(NC(=O)COC(=O)C2CCN(S(=O)(=O)c3ccc4c(c3)OCCO4)CC2)cc1 | inconclusive: -31.6% |
| CN(c1ccc(C(=O)NCc2ccccc2)cc1)S(C)(=O)=O | inconclusive: -33.5% |
| CCc1ccc2c(CN3CCN(S(=O)(=O)c4cccs4)CC3)cc(=O)oc2c1 | active: -74.9% |
| COc1ccc(-n2c(/C=C3\C(=O)N(C)c4ccccc43)nc3ccccc3c2=O)cc1 | inactive: 22.4% |
| CC(=O)Nc1ccc(OCC(O)CN2CCN(c3ccc(F)cc3)CC2)cc1 (stereo not drawn) | inconclusive: -33.8% |
| O=C(CC(=O)N/N=C\c1ccccc1)NCCc1ccccc1 | inconclusive: -44.2% |
| C[C@@]12C(=O)N(Cc3ccco3)CC(=O)N1[C@H]1c3ccccc3OC[C@@H]1[C@@H]2c1ccccc1 | inconclusive: -45.8% |
| CCOC(=O)c1nnc(-c2cccs2)nc1Oc1ccc(Cl)cc1 | active: -66.7% |
| O=C1C2C3C=CC(C4CC34)C2C(=O)N1CCCCN1CCN(c2ccc(F)cc2)CC1 (stereo not drawn) | active: -85% |
| COC(=O)c1sc(NC(=O)c2cc(-c3ccccc3)nc3ccccc23)c(C#N)c1C | inactive: 3.52% |
| Cc1ccc(S(=O)(=O)Nc2ncnc3sccc23)cc1C | inconclusive: -42.9% |
| O=C(NC(C(=O)N/N=C/c1cc([N+](=O)[O-])ccc1O)c1n[nH]c(=O)c2ccccc12)c1ccccc1 (stereo not drawn) | inconclusive: -36.1% |

| SMILES | max response, negative = inhibition |
| --- | --- |
| Cc1nn(-c2ccccc2)c(C)c1/C=N/n1c(-c2ccccc2Br)n[nH]c1=S | inactive: -18.6% |
| Cc1ccc(C(=O)CC2(O)C(=O)Nc3ccccc32)s1 (stereo not drawn) | inconclusive: -41.5% |
| COc1ccc(-c2oc(NC(C)=O)c(C#N)c2-c2ccc(OC)cc2)cc1 | inconclusive: -34.4% |
| COc1ccc(-n2nnnc2S(=O)(=O)CC(=O)N2CCCCC2)cc1 | active: -98.4% |
| COc1ccc(C2(c3ccc(OC)cc3)NC(=O)N(CC(=O)NCC(C)c3ccccc3)C2=O)cc1 (stereo not drawn) | inactive: 14% |
| Cc1onc(-c2c(F)cccc2Cl)c1C(=O)OCC(=O)N1C(C)CCCC1C (stereo not drawn) | inconclusive: -32.4% |
| CCN(CC)c1ccc(C=Nc2ccccc2)c(O)c1 | active: -54.2% |
| CCOc1ccccc1N1CCN(Cc2ccc(OC)c(OC)c2OC)CC1 | active: -141% |
| CCC(C)N(C(=O)CSc1ncnc2sccc12)C1CCS(=O)(=O)C1 (stereo not drawn) | inactive: 6.53% |
| COc1ccc2c(c1)CCCC2=O | inactive: -8.91% |
| CCc1ccc2nc(NC(=O)CCCc3cccs3)sc2c1 | inconclusive: -40.7% |
| CS(=O)(=O)N(CC(=O)NCc1ccc2c(c1)OCO2)Cc1ccccc1 | inconclusive: -31% |
| CC(=O)c1c(N2CCN(C)CC2)[nH]c(-c2ccccc2)nc1=S | inconclusive: -41.1% |
| CCNC(=O)CN(C1CCCCC1)S(=O)(=O)c1ccc(F)cc1 | inconclusive: -31.6% |
| Cc1ccccc1NC(=O)CN1CCC(n2nnc3ccccc32)CC1 | inconclusive: -45.5% |
| Cc1ccc(C(=O)NCC(=O)NCC(=O)OCC(=O)c2ccc(F)cc2)cc1 | inconclusive: -34.9% |
| CCN(C(=O)c1cccc(F)c1)c1ccccc1C | inconclusive: -43.8% |
| Nn1cnnc1N/N=C\c1ccc(-c2ccccc2[N+](=O)[O-])o1 | inconclusive: -40.7% |
| C=CCNCCOc1cccc(Br)c1 | active: -76.1% |
| CCOc1ccccc1CN1CCC(O)CC1 | inconclusive: -44.3% |
| COc1cccc(C(=O)N2CCC(n3nccc3NC(=O)C(OC)c3ccccc3)CC2)c1 (stereo not drawn) | inconclusive: -34.6% |
| O=C(O)c1ccc(Nc2nc3ccccc3nc2NS(=O)(=O)c2cccs2)cc1 | inactive: -4.82% |

| SMILES | max response, negative = inhibition |
| --- | --- |
| COc1ccc(C(NC(=O)C2CCN(CCOc3ccc(F)cc3)CC2)c2cccs2)cc1 (stereo not drawn) | active: -68.3% |
| O=C(NC1CCN(Cc2ccccc2)CC1)c1ccc(Cl)cc1Cl | inconclusive: -37.8% |
| Cc1noc(C)c1C(=O)N1CCC2(CC1)Oc1ccc(F)cc1C(=O)C21CC(c2ccc(Cl)cc2)=NO1 (stereo not drawn) | inconclusive: -37.4% |
| C=CCOc1cccc(/C=N/NC(=O)CC(=O)NC2CCCCC2)c1 | inconclusive: -30% |
| O=C(Nc1ccc(S(=O)(=O)N2CCCC2)cc1)c1ccc([N+](=O)[O-])o1 | inconclusive: -37.2% |
| CCc1ccc2oc(-c3cccc(N)c3)nc2c1 | active: -52.2% |
| COc1ccc(NCc2nnc(SCC#N)n2-c2ccccc2OC)cc1 | inactive: -18.4% |
| COc1ccc(-c2sc(NC(=O)c3ccc(C)cc3)nc2-c2ccc([N+](=O)[O-])cc2)cc1 | inconclusive: -34.4% |
| CC(=O)NC1=NN(C(C)=O)C2(S1)C(=O)N(C(C)C)c1ccc(C)cc12 (stereo not drawn) | inconclusive: -47.2% |
| CCOc1c2ccc(C(=O)NCC34CC5CC(CC(C5)C3)C4)cc2nn1CC | inactive: 0% |
| COC(=O)/C(=C/c1cccnc1)NC(=O)c1ccccc1 | inconclusive: -37.2% |
| CC(=NCCc1c(C)[nH]c2ccc(OC(F)(F)F)cc12)C1=C(O)CC(c2ccccc2)CC1=O (stereo not drawn) | inconclusive: -34% |
| O=C1/C(=C/C=C/c2ccco2)SC(=S)N1c1ccc(O)cc1 | inactive: -26.3% |
| COc1cc(C(O)c2nc(/C=C/c3ccc(C(F)(F)F)cc3)cs2)ccc1F (stereo not drawn) | inactive: -17.6% |
| C[C@@H]1CN([C@H](C)CO)C(=O)CCCn2nncc2CO[C@H]1CN(C)Cc1cccc(O)c1 | inactive: -3.33% |
| COc1ccc(N2CC(C(=O)NCCc3ccc(Cl)cc3)CC2=O)c(OC)c1 (stereo not drawn) | inactive: 0% |
| N#Cc1cc(O)c(-n2nnc3ccccc32)cc1C#N | inactive: -3.36% |
| C#CCNC(=O)C1=C[C@H](c2ccc(Br)cc2)[C@@H](CCCO)[C@H](OCC)O1 | inactive: -20.5% |
| Cc1cc(=O)oc2cc(OCCSCCN3CCCCC3)ccc12 | active: -65.5% |
| COc1cc(C(=O)Nc2ccc(S(=O)(=O)Nc3cc(C)on3)cc2)cc(OC)c1OC | inconclusive: -33.1% |
| Cc1ccccc1CSCC(=O)N/N=C/c1cccs1 | inactive: 13.6% |
| Cc1ccc(SC(=O)c2c([N+](=O)[O-])c(C)nn2C)cc1 | inconclusive: -32.4% |
